SMILES strings stand for the structures. Some of the results follow. These are further read-outs of the screen, such as a control signal, another cell line or another target. No call is given for them. Compounds called inactive in the main read-out are mostly missing here. Potencies come from curve fits of mixed quality, noted in brackets.

The test in a line: IkB Signaling. The following applies: ABC-DLBCL IkBa-CBG/CBR dual luciferase ratio (green luciferase fused to IkBa over red control in OCI-Ly3 lymphoma cells), 4 h; measured here: control luc red channel unless noted. The method in brief: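 In this assay, an IκBα–CBG68 fusion accumulates when IKK-driven degradation is blocked; native CBR normalizes for cell number. OCI-Ly3 cells were treated 4 h with compound and doxycycline, then green and red light read after Chroma-Glo addition.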
Take `C=CCn1c(COc2ccc(Cl)cc2)nnc1SCc1ccc(C#N)cc1`: the AC50 – broadly, the concentration giving half of the maximal activity seen – is 7.94 µM [falling, partial curve].

Take `CCOC(=O)c1cc(-c2ccc(C)cc2)n(CCC(=O)Nc2ccc(C(C)C)cc2)c1C`: the half-maximal activity concentration (AC50) is 12.6 µM [falling, partial curve].

Regarding `CC(=O)c1ccc(OCCCC(=O)N2CCN(S(=O)(=O)c3cccs3)CC2)cc1`, the AC50 was 12.6 µM [falling, partial curve].

On to `Cc1ccc(Cl)cc1NC(=O)CC(O)(C(F)(F)F)C(F)(F)F`, for which the half-maximal activity concentration (AC50) was 3.98 µM [falling, full curve, poor fit].

Regarding `Cc1cccc(NC(=O)CS(=O)(=O)c2nc(-c3ccccc3)cn2-c2cccc(Cl)c2)c1C`, the AC50 was 7.94 µM [falling, partial curve].

Take `O=C(Nc1ccc2nc(-c3cccs3)[nH]c2c1)c1cccs1`: the AC50 was 12.6 µM [falling, partial curve].

In the case of `O=C(NC1CC(=O)N(c2ccc(Cl)cc2)C1)c1ccc2c(c1)OCO2` (stereo unspecified), the AC50 is 6.31 µM [rising, single point].

Take `CCOc1ccccc1NC(=O)c1nc2nc(C)cc(C(F)F)n2n1`: the concentration at half-maximal activity (AC50) is 2.51 µM [falling, partial curve].

On to `COc1cccc(N2CCN(C(=O)C3CCN(S(=O)(=O)c4c(C)noc4C)CC3)CC2)c1`, for which the AC50 is 25.1 µM [falling, partial curve, poor fit].

As for `COc1cccc(-c2nc(CS(=O)(=O)CC(=O)Nc3c(C)cc(C)cc3C)c(C)o2)c1`, the concentration at half-maximal activity (AC50) is 31.6 µM [falling, single point].

Turning to `O=C(C1CC1)N1CCc2cc(Br)cc(S(=O)(=O)NCC3COc4ccccc4O3)c21` (stereo unspecified), the half-maximal activity concentration (AC50) is 25.1 µM [falling, partial curve].

In the case of `CCOC(=O)N1CCc2c(sc3c2c(=O)n(-c2ccc(CC)cc2)c(=O)n3CC(=O)Nc2ccc(C)cc2)C1`, the AC50 was 6.31 µM [falling, partial curve].

As to `COc1ccc(Cl)c(Cn2c(NCc3ccco3)nc3c2c(=O)n(C)c(=O)n3C)c1`, the AC50 was 10 µM [falling, partial curve].

For the compound `CCNc1ccc(-c2nc(-c3ccco3)no2)cc1[N+](=O)[O-]`, the concentration at half-maximal activity (AC50) was 1.58 µM [rising, partial curve, poor fit].

As for `O=C(NCCOCCn1c(=O)oc2ccccc21)Nc1ccc(Cl)cc1`, the AC50 was 12.6 µM [rising, partial curve].

For `O=C(NCc1ccccn1)c1ccc(COc2ccc(Cl)cc2)o1`, the half-maximal activity concentration (AC50) was 12.6 µM [falling, partial curve].

Turning to `Cc1ccc2oc(=O)n(CCCOc3ccc(Cl)cc3)c2c1`, the AC50 was 20 µM [falling, partial curve].

Turning to `CNS(=O)(=O)c1cccc(C(=O)OCc2cc(Cl)cc3c2OCOC3)c1`, the AC50 is 25.1 µM [falling, partial curve].

Consider `Cc1ccc2scc(N3CCN(c4ccc(F)cc4)CC3)c(=O)c2c1`, for which the AC50 was 31.6 µM [falling, single point].

`O=C1c2[nH]nc(-c3ccc(Br)cc3)c2C(c2cccc(O)c2)N1c1ccc(Cl)cc1` (stereo unspecified): the AC50 was 7.94 µM [falling, full curve].

For `CCOc1ccc(C(c2c(O)cc(C)n(CCOC)c2=O)N2CCC(C)CC2)cc1` (stereo unspecified), the AC50 is 25.1 µM [falling, single point].

Consider `COc1ccc(Cl)cc1NC(=O)CN(c1cccc(C)c1C)S(=O)(=O)c1ccccc1`, for which the AC50 is 7.94 µM [falling, full curve].

For `O=C(CC1N=C2c3ccccc3N=C(SCc3ccccc3F)N2C1=O)NCc1ccc2c(c1)OCO2` (stereo unspecified), the AC50 is 25.1 µM [falling, single point].

Regarding `COc1ccc(C2c3c(n(C)c4ccccc34)C(=O)N2CC(=O)Nc2ccccc2F)cc1` (stereo unspecified), the concentration at half-maximal activity (AC50) was 31.6 µM [falling, single point].

Turning to `COc1ccc(CCNC(=O)c2ccc3c(c2)N(Cc2cccc(Cl)c2)C(=O)CS3)cc1OC`, the concentration at half-maximal activity (AC50) is 12.6 µM [falling, partial curve].

Regarding `Cc1ccc(CCNC(=O)c2ccc(CSCc3ccccc3Cl)o2)cc1`, the AC50 was 31.6 µM [falling, single point].

As to `COc1cc(OC)c(NS(=O)(=O)c2cc(-c3cnc(C)o3)ccc2OC)cc1Cl`, the AC50 is 0.501 µM [rising, full curve, poor fit].

As to `Cc1ccc(NC(=O)CN2C(=O)CCn3nc(-c4cccn4C)cc32)cc1`, the AC50 was 0.0794 µM [rising, full curve, poor fit].

Regarding `CCOc1ccc(OCC)c(NC(=O)CCC(=O)N2CCOc3ccccc32)c1`, the AC50 is 7.94 µM [rising, partial curve].

On to `COCCCNc1nc2c(S(=O)(=O)c3ccc(C)c(C)c3)nnn2c2ccc(Cl)cc12`, for which the AC50 is 12.6 µM [falling, partial curve].

With `Cc1ccc2oc(-c3cc(NC(=O)c4ccco4)ccc3Cl)nc2c1`, the AC50 was 31.6 µM [falling, single point].

In the case of `CCN(CC)CCNC(=O)c1nn(C)c2c1CS(=O)(=O)c1ccccc1-2`, the AC50 is 3.98 µM [falling, full curve, poor fit].

In the case of `CCOC(=O)c1ccc(N2C(=O)c3n[nH]c(-c4ccco4)c3C2c2ccc(O)c(OC)c2)cc1` (stereo unspecified), the half-maximal activity concentration (AC50) was 25.1 µM [falling, single point].

As to `Cc1ccc(CNC(=O)c2nn(C)c3c2CS(=O)(=O)c2ccccc2-3)cc1`, the half-maximal activity concentration (AC50) is 20 µM [falling, single point].

As for `O=C(Nc1nc2nc(-c3ccccc3)cc(=O)n2[nH]1)c1ccc(Cl)cc1`, the AC50 was 39.8 µM [falling, partial curve].

For `COC(=O)c1ccccc1NC(=O)COC(=O)c1ccc(C)c(NC(=O)c2ccco2)c1`, the AC50 is 7.94 µM [falling, partial curve].

Take `Cc1ccc(-c2nc3nc(C)cc(Nc4ccccc4O)n3n2)cc1`: the half-maximal activity concentration (AC50) is 12.6 µM [falling, partial curve].

As to `NC(=O)c1cc(-c2ccccc2)sc1NC(=O)Cc1ccc(S(=O)(=O)N2CCOCC2)s1`, the AC50 is 2 µM [falling, full curve].

`CCOc1ccc(CCNC(=O)CCCn2c(=O)c3cccn3c3ccccc32)cc1`: the AC50 was 12.6 µM [falling, partial curve].

Regarding `Cc1ccc(Cl)cc1NC(=O)C(C)n1nc(-c2ccccc2)ccc1=O` (stereo unspecified), the concentration at half-maximal activity (AC50) was 31.6 µM [falling, single point].

As to `O=C(NCc1ccco1)c1sc(=S)n2c1[nH]c(=O)c1ccccc12`, the AC50 was 10 µM [falling, partial curve].

With `Cc1cc(NC(=O)COC(=O)C(Nc2ccc(C(F)(F)F)cc2Cl)C(C)C)no1` (stereo unspecified), the AC50 is 12.6 µM [falling, partial curve].

As for `COc1ccc(C2=CC(c3ccccc3Cl)n3nc(-c4ccc(Cl)cc4)nc3N2)cc1` (stereo unspecified), the concentration at half-maximal activity (AC50) was 6.31 µM [falling, partial curve].

In the case of `Cc1ccc(Cl)cc1N1CCN(C(=O)Cn2cnc3sc(C)c(S(=O)(=O)N4CCC(C)CC4)c3c2=O)CC1`, the concentration at half-maximal activity (AC50) is 10 µM [falling, partial curve].

As to `Cc1ccc2c(c1)c1c(n2CC(O)Cn2c(C)nc3ccccc32)/C(=N\O)CCC1` (stereo unspecified), the AC50 was 12.6 µM [falling, partial curve].

Take `Cc1nc2nc(NCc3ccc(Cl)cc3)[nH]n2c(=O)c1Cc1ccccc1`: the AC50 was 31.6 µM [falling, partial curve].

For `CCCn1c(CCC(=O)Nc2ccc(OCC)cc2)nc2cccnc21`, the AC50 is 25.1 µM [falling, single point].

In the case of `CC(=O)Nc1ccc(-c2nc3c(C)cccc3[nH]2)cc1`, the AC50 was 15.8 µM [falling, partial curve].

Regarding `COc1ccccc1N1CCN(CCCNC(=O)c2cnn(-c3cccc(Cl)c3)c2C2CCN(C(=O)OC(C)(C)C)CC2)CC1`, the half-maximal activity concentration (AC50) was 31.6 µM [falling, partial curve].

Regarding `Cc1ccc(CN2C(=O)C3(c4ccccc42)N(c2cccc(F)c2)C(=O)CS3(=O)=O)cc1` (stereo unspecified), the AC50 is 25.1 µM [falling, single point].

Regarding `CCOc1ccc(CNC(=O)Cn2cc3c(n2)-c2c(oc(C(=O)N4CCOCC4)c2C)CC3)cc1`, the AC50 is 31.6 µM [falling, single point].

On to `CCc1cccc(-n2nnc(-c3nsc(NC(=O)c4cccs4)n3)c2C)c1`, for which the AC50 is 15.8 µM [rising, partial curve, poor fit].

As to `CC(=O)Nc1ccc2nc(-c3cc(C)ccc3C)[nH]c2c1`, the AC50 was 25.1 µM [rising, partial curve] [measured here: IkB-luc green channel].

For `Cc1ccc(OCc2ccc(-c3nc(C#N)c(NCc4cccnc4)o3)o2)cc1`, the AC50 was 25.1 µM [falling, single point].

Regarding `COc1ccccc1N1CCN(S(=O)(=O)c2c(C)sc3ncn(CC(=O)N(C)c4ccc(Cl)cc4)c(=O)c23)CC1`, the half-maximal activity concentration (AC50) was 10 µM [falling, partial curve].

As to `Cc1ccc2[nH]c(=O)c(CN(Cc3ccccc3)Cc3nnnn3C3CCCC3)cc2c1`, the AC50 was 1.26 µM [falling, full curve].

On to `Cc1c(C(=O)N2CCC(c3nc4ccccc4s3)CC2)oc2ccc(Cl)cc12`, for which the AC50 was 25.1 µM [falling, partial curve].

Take `Cc1ccc2c(CC(=O)Nc3ccc(S(=O)(=O)N4CCCCC4)cc3)coc2c1`: the concentration at half-maximal activity (AC50) is 7.94 µM [falling, partial curve].

With `Cc1ccc(Cl)cc1NC(=O)Cn1c(=O)oc2cc(S(=O)(=O)N3CCCC3)ccc21`, the AC50 is 1.26 µM [falling, full curve].

Regarding `Cc1ccc(-n2ncc3c(Nc4cccc(C)c4C)ncnc32)cc1`, the AC50 was 39.8 µM [falling, partial curve].

As to `Cc1ccc(NC(=O)c2cc(-c3ccc(Br)s3)nc3ccccc23)cc1F`, the AC50 was 3.16 µM [rising, partial curve, poor fit].

Values taken from PubChem BioAssay AID445 (National Center for Advancing Translational Sciences (NCATS), 2006).
